Source: PubChem BioAssay AID504804 (Drosophila RNAi Screening Center, 2011)

- Assay: 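dsRNAs that improve Kc cell survival under doxorubicin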 (primary screen)
- Cell system: Drosophila Kc cells
- Reagent: long dsRNA against Drosophila genes, 0.5 µg dsRNA per well
- Time to read-out: 96 h (48 h knock-down, then 48 h drug)
- Treatment: doxorubicin 5 µg/ml for 48 h, added 48 h after dsRNA
- Detection: 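Luminescent ATP counts per replicate, not normalised, reflecting viable cells after 48 h dsRNA knock-down followed by 48 h of 5 µg/ml doxorubicin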
- Direction: raw ATP luminescence: higher = more viable cells, protection from doxorubicin
- Call rule: 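z-score of 2 or more over plate mean in both duplicates, retained only when retests and separate dsRNAs confirm the protection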
The deposit covers about 19,000 reagents; below is an unselected part of those that have a named target and a result. Of all reagents, 47 (0.25%) are marked active. 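Signals are raw, not normalised; exact z-scores behind calls not deposited; actives needed confirmation, so some wells reaching 2 SD are inactive.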 A plus sign joins genes that one reagent is predicted to hit.

no.	target	DRSC id	raw ATP luminescence, replicate 1	raw ATP luminescence, replicate 2	call
1	CG32548	DRSC19627	3.96e5	3.23e5	inactive
2	CG3548	DRSC04387	60160	52367	inactive
3	CG8136	DRSC16385	54437	56757	inactive
4	brp	DRSC06245	54973	64913	inactive
5	brp	DRSC06246	38513	72467	inactive
6	brp	DRSC06801	44137	69777	inactive
7	fipi	DRSC00465	42743	43407	inactive
8	CG10019	DRSC00279	19423	16800	inactive
9	CG17490	DRSC03794	62380	56200	inactive
10	CG17490	DRSC03797	62493	55533	inactive
11	Strip	DRSC08194	49643	47963	inactive
12	CG13506	DRSC04150	60790	48200	inactive
13	Tmem214	DRSC02924	38667	56177	inactive
14	Tmem214	DRSC02925	43780	57607	inactive
15	Cdk9	DRSC04601	40670	61493	inactive
16	CG9593	DRSC16508	75990	62700	inactive
17	nudC	DRSC11096	53677	59043	inactive
18	nudC	DRSC11097	62747	56137	inactive
19	mip40	DRSC06541	59803	83480	inactive
20	BtbVII	DRSC08415	46053	85403	inactive
21	Polr2B	DRSC16831	26960	20047	inactive
22	alien + CG17906	DRSC02641	38980	58560	inactive
23	Ncoa6	DRSC02353	16153	12367	inactive
24	CG17190	DRSC15184	40020	30800	inactive
25	CG13075	DRSC09958	36403	43027	inactive
26	CG43773	DRSC00287	23607	32027	inactive
27	CG43773	DRSC00288	25643	29090	inactive
28	Diap1	DRSC11404	6310	4850	inactive
29	CG34304 (retired record)	DRSC12810	70687	53340	inactive
30	Sik3	DRSC06771	56520	59163	inactive
31	Tpr2	DRSC03461	1.05e5	80913	inactive
32	Tep5Psi	DRSC02183	52907	55993	inactive
33	Tep5Psi	DRSC02184	50927	47950	inactive
34	PolG1	DRSC03621	67020	92037	inactive
35	CG12310	DRSC09878	61643	54113	inactive
36	ImpE3	DRSC16716	52277	61160	inactive
37	Arpc4	DRSC02917	17770	19727	inactive
38	PolE2	DRSC09737	65407	33957	inactive
39	mor	DRSC15378	70300	71430	inactive
40	ppk25	DRSC04973	38943	77607	inactive
41	Cdlc2	DRSC00743	1.06e5	82363	inactive
42	ATPsyngamma	DRSC14094	49530	36080	inactive
43	CG6138	DRSC02933	51043	58633	inactive
44	snoRNA:Me28S-C3227a + snoRNA:Me18S-A1061 + snoRNA:Me28S-C3227b + 7 more	DRSC05497	1.00e5	1.08e5	inactive
45	MED17	DRSC16889	38783	34953	inactive
46	tai	DRSC02207	15677	30760	inactive
47	tai	DRSC02673	40933	87043	inactive
48	CG43693	DRSC09086	1.33e5	1.34e5	inactive
49	CG43693	DRSC10625	55353	51553	inactive
50	CG32281	DRSC08236	38540	44967	inactive
51	CG17959	DRSC18142	63800	62480	inactive
52	Mtmr6	DRSC04046	48413	62453	inactive
53	Dad1	DRSC02263	34963	44410	inactive
54	CG7409	DRSC10842	82203	77233	inactive
55	CG13086	DRSC02190	52067	54757	inactive
56	CG17362	DRSC10267	41237	32527	inactive
57	vex	DRSC19481	3.84e5	3.97e5	inactive
58	vex	DRSC19651	3.75e5	3.71e5	inactive

A few values from the entries so far:
Under “raw ATP luminescence, replicate 2”, mip40 [DRSC06541] reads 83480
Entry for Cdk9 [DRSC04601] under “call”: inactive
Result for snoRNA:Me28S-C3227a + snoRNA:Me18S-A1061 + snoRNA:Me28S-C3227b + 7 more [DRSC05497] in “raw ATP luminescence, replicate 1”: 1.00e5
Value of vex [DRSC19651] in “raw ATP luminescence, replicate 1”: 3.75e5
